The text below walks through data of US10450346B2, “Immunotherapy against several tumors of the blood, in particular chronic lymphoid leukemia (CLL)” (Immatics biotechnologies GmbH, priority 2014, dated 2019).

In the series the test system is primary CLL samples (PBMC from CLL patients), HLA class I ligands. In words: HLA class I ligandome analysis by LC-MS/MS (frequency of HLA restricted presentation). Also on record: species or system human. As to conditions: CLL patient HLA class I ligandomes (n = 30).
As for “1 (AEHPNVTLTI; listed as Homo sapiens) [compound 1]”, the “Number of positive CLLs” value is recorded as 1.
For the substance “2 (FLAEHPNVTL; listed as Homo sapiens) [compound 2]”, the “Number of positive CLLs” value came to 8.
Turning to “3 (ILYGRSYTW; listed as Homo sapiens) [compound 3]”, the “Number of positive CLLs” value is listed as 1.
Consider “4 (EVAEFLARH; listed as Homo sapiens) [compound 4]”, for which the “Number of positive CLLs” value is reported as 2.
Regarding “5 (RHSNVNLTI; listed as Homo sapiens) [compound 5]”, the “Number of positive CLLs” value stood at 1.
Turning to “6 (HPDNVKLFL; listed as Homo sapiens) [compound 6]”, the “Number of positive CLLs” value stood at 1.
Next, “7 (ISDTGELKL; listed as Homo sapiens) [compound 7]”: 1.
For the substance “8 (KVNGKLVALK; listed as Homo sapiens) [compound 8]”, the “Number of positive CLLs” value came out at 1.
As for “9 (NRLSAQAAL; listed as Homo sapiens) [compound 9]”, the figure is 1; as for “10 (TPFTAIREA; listed as Homo sapiens) [compound 10]”, 1; as for “11 (FGLARAKSV; listed as Homo sapiens) [compound 11]”, 6.
As to “12 (KIADFGLAR; listed as Homo sapiens) [compound 12]”, the “Number of positive CLLs” value is 1.
As for “14 (GRFKNLREAL; listed as Homo sapiens) [compound 14]”, the figure is 1; as for “15 (MSPFSKATL; listed as Homo sapiens) [compound 15]”, 2; as for “16 (QEDPGDNQITL; listed as Homo sapiens) [compound 16]”, 1.
As for “17 (SPFSKATL; listed as Homo sapiens) [compound 17]”, the figure is 2; as for “18 (DALLKRTM; listed as Homo sapiens) [compound 18]”, 1; as for “19 (GEDVRSALL; listed as Homo sapiens) [compound 19]”, 3.
As for “20 (KFAEEFYSF; listed as Homo sapiens) [compound 20]”, the figure is 2; as for “21 (YGYDNVKEY; listed as Homo sapiens) [compound 21]”, 7.
Consider “22 (LEVEERTKPV; listed as Homo sapiens) [compound 22]”, for which the “Number of positive CLLs” value stood at 1.
Take “23 (RDSPINANLRY; listed as Homo sapiens) [compound 23]”: the “Number of positive CLLs” value amounted to 1.
With “24 (RPFVIVTA; listed as Homo sapiens) [compound 24]”, the “Number of positive CLLs” value was 1.
Regarding “25 (RPIINTPMV; listed as Homo sapiens) [compound 25]”, the “Number of positive CLLs” value is reported as 1.
Turning to “26 (SPTSSRTSSL; listed as Homo sapiens) [compound 26]”, the “Number of positive CLLs” value was found to be 7.
On to “27 (ATSAPLVSR; listed as Homo sapiens) [compound 27]”, for which the “Number of positive CLLs” value is 1.
With “28 (AELRSTASLL; listed as Homo sapiens) [compound 28]”, the “Number of positive CLLs” value is 1.
Regarding “29 (APASSHERASM; listed as Homo sapiens) [compound 29]”, the “Number of positive CLLs” value is 2.
In the case of “30 (ASRQAPPHI; listed as Homo sapiens) [compound 30]”, the “Number of positive CLLs” value is recorded as 1.
“31 (AVKKNPGIAA; listed as Homo sapiens) [compound 31]”: the “Number of positive CLLs” value is 2.
As for “32 (EEHLESHKKY; listed as Homo sapiens) [compound 32]”, the “Number of positive CLLs” value is reported as 2.
“33 (GEFTSARAV; listed as Homo sapiens) [compound 33]”: the “Number of positive CLLs” value is reported as 1.
“34 (GQSTPRLFSI; listed as Homo sapiens) [compound 34]”: the “Number of positive CLLs” value is 1.
As for “35 (LVDDPLEY; listed as Homo sapiens) [compound 35]”, the figure is 1; as for “36 (RPKNLMQTL; listed as Homo sapiens) [compound 36]”, 3; as for “37 (RQAPPHIEL; listed as Homo sapiens) [compound 37]”, 2.
As to “38 (SEAAELRSTA; listed as Homo sapiens) [compound 38]”, the “Number of positive CLLs” value is 1.
Regarding “39 (AAVRIGSVL; listed as Homo sapiens) [compound 39]”, the “Number of positive CLLs” value came out at 2.
Take “40 (ERAGVVREL; listed as Homo sapiens) [compound 40]”: the “Number of positive CLLs” value was 1.
Regarding “41 (GAAVRIGSVL; listed as Homo sapiens) [compound 41]”, the “Number of positive CLLs” value is 1.
For “42 (KLYELHVFTF; listed as Homo sapiens) [compound 42]”, the “Number of positive CLLs” value stood at 1.
“43 (LYELHVFTF; listed as Homo sapiens) [compound 43]”: the “Number of positive CLLs” value was 2.
Regarding “45 (DELPKFHQY; listed as Homo sapiens) [compound 45]”, the “Number of positive CLLs” value worked out at 2.
As to “46 (DVTGQFPSSF; listed as Homo sapiens) [compound 46]”, the “Number of positive CLLs” value came to 1.
For the substance “47 (EHSRVLQQL; listed as Homo sapiens) [compound 47]”, the “Number of positive CLLs” value is given as 2.
As for “48 (IKVSKQLL; listed as Homo sapiens) [compound 48]”, the figure is 1; as for “49 (KPRQSSPQL; listed as Homo sapiens) [compound 49]”, 3.
Next, “50 (KQLLAALEI; listed as Homo sapiens) [compound 50]”: 1; “51 (RRKDLVLKY; listed as Homo sapiens) [compound 51]”: 2.
As for “52 (RTRDYASLPPK; listed as Homo sapiens) [compound 52]”, the figure is 1.
As for “53 (APGSVLPRAL; listed as Homo sapiens) [compound 53]”, the “Number of positive CLLs” value was determined as 3.
“54 (DIKEHPLL; listed as Homo sapiens) [compound 54]”: the “Number of positive CLLs” value amounted to 1.
As for “55 (DSAGPQDAR; listed as Homo sapiens) [compound 55]”, the “Number of positive CLLs” value came to 1.
Next, “56 (FQYAKESYI; listed as Homo sapiens) [compound 56]”: 1; “57 (KVLSWPFLM; listed as Homo sapiens) [compound 57]”: 1; “58 (LENDQSLSF; listed as Homo sapiens) [compound 58]”: 1.
As for “59 (SPSRQPQV; listed as Homo sapiens) [compound 59]”, the figure is 1.
On to “60 (SRHQSFTTK; listed as Homo sapiens) [compound 60]”, for which the “Number of positive CLLs” value came to 3.
As for “61 (SSHNASKTL; listed as Homo sapiens) [compound 61]”, the figure is 2; as for “62 (EEIDTTMRW; listed as Homo sapiens) [compound 62]”, 1.
Take “64 (LPQEPRTSL; listed as Homo sapiens) [compound 64]”: the “Number of positive CLLs” value turned out to be 2.
As to “65 (LTYKLPVA; listed as Homo sapiens) [compound 65]”, the “Number of positive CLLs” value is recorded as 1.
For the substance “66 (NEMELAHSSF; listed as Homo sapiens) [compound 66]”, the “Number of positive CLLs” value was 2.
As for “67 (REFPEANFEL; listed as Homo sapiens) [compound 67]”, the figure is 1; as for “68 (THHIPDAKL; listed as Homo sapiens) [compound 68]”, 1; as for “69 (TVKENLSLF; listed as Homo sapiens) [compound 69]”, 1.
Next, “70 (VLLKKAVL; listed as Homo sapiens) [compound 70]”: 1.
With “71 (HLKSIPVSL; listed as Homo sapiens) [compound 71]”, the “Number of positive CLLs” value worked out at 2.
Consider “72 (KVWYNVENW; listed as Homo sapiens) [compound 72]”, for which the “Number of positive CLLs” value was determined as 1.
In the case of “73 (LPAYRAQLL; listed as Homo sapiens) [compound 73]”, the “Number of positive CLLs” value is given as 1.
For “74 (LSEQTSVPL; listed as Homo sapiens) [compound 74]”, the “Number of positive CLLs” value is 1.
With “75 (SLNQWLVSF; listed as Homo sapiens) [compound 75]”, the “Number of positive CLLs” value came out at 1.
Next, “76 (SMTSLAQKI; listed as Homo sapiens) [compound 76]”: 1.
Turning to “77 (SSSGLHPPK; listed as Homo sapiens) [compound 77]”, the “Number of positive CLLs” value was 2.
Turning to “79 (FYTVIPHNF; listed as Homo sapiens) [compound 79]”, the “Number of positive CLLs” value was found to be 3.
Take “80 (HHINTDNPSL; listed as Homo sapiens) [compound 80]”: the “Number of positive CLLs” value worked out at 2.
Take “81 (RVGEVGQSK; listed as Homo sapiens) [compound 81]”: the “Number of positive CLLs” value stood at 2.
Regarding “82 (AVFDGAQVTSK; listed as Homo sapiens) [compound 82]”, the “Number of positive CLLs” value is 7.
Take “83 (SQTDLVSRL; listed as Homo sapiens) [compound 83]”: the “Number of positive CLLs” value is 1.
For “84 (VPVPHTTAL; listed as Homo sapiens) [compound 84]”, the “Number of positive CLLs” value is recorded as 7.
For the substance “85 (YQVLDVQRY; listed as Homo sapiens) [compound 85]”, the “Number of positive CLLs” value worked out at 1.
“86 (APFQGDQRSL; listed as Homo sapiens) [compound 86]”: the “Number of positive CLLs” value is 2.
